# Primary screen of a compound library

From ChEMBL document CHEMBL3988442, “University of Dundee, Small-Polar-MMV Screening Library” (2021).

A: 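Growth of Mycobacterium tuberculosis over 3 days (7H9 medium with glucose and tyloxapol); the read-out is not stated. Concentration: 50 µM. Direction is inferred from retests: higher values go with more growth inhibition. Size under these conditions: about 69,000 compounds, about 760 of them at 50% or above in at least one test.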
B: 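Growth of Mycobacterium tuberculosis over 4 days (cholesterol / DPPC medium with tyloxapol); the read-out is not stated. Concentration: 50 µM. The record gives no direction; compounds that gave an IC50 in retests scored well above the rest, so higher reads as more growth inhibition. Size under these conditions: about 69,000 compounds, about 370 of them at 50% or above in at least one test.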

The filed quantity is “Percent Effect” (%).
How 0% and 100% were set is not recorded. Most values in the screen are low, and negative values occur.
The compounds are a random part of those screened.
Two or more numbers in one place are separate tests of the same structure; such repeats can differ widely.

* COc1nn(C)c2c1CCCN(C(=O)c1cnccn1)C2 | A: -17.32%; B: -4.898%
* O=C(CCn1ccc(=O)[nH]c1=O)N1CCC(OCc2cccnc2)CC1 | A: -16.65%; B: 5.206%
* COC(=O)[C@H]1CN(C(=O)c2cscn2)C[C@@H]1c1ccc(F)cc1 | A: -21.65%; B: -1.25%
* CC(C)(C)c1cc(NC(=O)NCCc2nnc3n2CCC3)c(C#N)s1 | A: 11.35%; B: -16.7% and -9.698%
* CNC(C(=O)N1CCC(c2nccn2C(C)C)CC1)c1ccccc1 (configuration not stated) | A: 8.379%; B: -5.801% and -5.145%
* O=C(N1CCOCC(O)C1)C1(c2ccc(Cl)cc2)CCC1 (configuration not stated) | A: -35.6%; B: -16.8%
* [H][C@@]12CN(CCOC)C[C@]1([H])[C@H](OC)CCN2C(=O)c1cccc(OC)c1 | A: 6.252%; B: -8.411%
* Cc1cc2ccccc2n1CCC(=O)N1CCN(C)CC1C(N)=O (configuration not stated) | A: -14.79%; B: 5.706% and 0.366%
* COc1ccc(CN(CC2CCCO2)c2nc3c(s2)c(C)nn3C)cc1 (configuration not stated) | A: -39.96%; B: -18.81%
* CCCc1n[nH]c(C2CN(C(=O)c3ccc[nH]3)CCO2)n1 (configuration not stated) | A: -27.55%; B: -11.01%
* Cc1ccc(CNC(=O)Cc2c(C)nc3c(c2C)c(=O)[nH]n3C)cc1 | A: 14.46%; B: 12.75%
* O=C(O)C(F)(F)F.[H][C@@]12COC[C@H](C(=O)N3CCOCC3)[C@]1([H])CN(Cc1c(C)noc1C)C2 | A: 0.6172%; B: -9.481% and 19.77%
* O=C(c1ccc(N2CCCC2)nn1)N1CCCC(n2ccnc2)C1 (configuration not stated) | A: 18.71%; B: 3.846%
* CN(C)C(=O)C1CSCN1C(=O)CCc1ccco1 (configuration not stated) | A: -10.4%; B: -17.47%
* Cc1ccc(OCCn2cnc3oc(C)c(C(=O)O)c3c2=O)cc1 | A: -10.35%; B: 13.05%
* CCc1ccc(C2NCCc3cc4c(cc32)OCCO4)cc1 (configuration not stated) | A: 8.204%; B: -1.63%
* COc1ccc(Cn2c(Cc3c(C)n[nH]c3C)n[nH]c2=O)cc1 | A: -10.18%; B: -3.052%
* COCCN1CCC(Nc2c(F)cc(C#N)cc2F)CC1 | A: 5.137% and -11.03%; B: 11.66%
* CC(=O)c1ccc(OCC(=O)c2cccn2C)cc1 | A: -4.635%; B: -17.44% and -8.001%
* CCCN1CCC(CNC(=O)C2(c3cccc(C)c3)CC2)C1 (configuration not stated) | A: 9.047%; B: -11.29%
* [H][C@@]12C[C@@H](OC)C[C@]1([H])CN(C(=O)c1cc3cccc(F)c3[nH]1)C2 | A: 10.31%; B: 25.15% and 5.953%
* CC(CNC(=O)c1cccc(-n2cccn2)n1)Cn1ccnc1 (configuration not stated) | A: 13.44%; B: 0.7977%
* COc1c(CNCc2ccc(N(C)C)nc2)c(C)nn1C | A: 4.687%; B: 0.2602%
* Fc1cccc(N2CCOC3(CCCN(c4cnccn4)C3)C2)c1 (configuration not stated) | A: 14.56%; B: 2.366%
* CNC(=O)CSc1nc2c(cnn2Cc2ccc(F)cc2)c(=O)[nH]1 | A: -68.6% and -8.496%; B: -53.27%
* Cc1nc(C(C)(C)C)sc1C(=O)NCCNc1ncccn1 | A: 23.96%; B: 5.097%
* Cc1ccc(F)c2c1CCCN2C(=O)c1cn(CC(=O)N(C)C)nn1 | A: -6.623%; B: 6.926%
* COCCN(C(=O)c1ccoc1C)c1ccc(C#N)cc1 | A: 2.598% and 9.85%; B: 7.332%
* [H][C@@]12CN(Cc3scnc3C)C[C@H](C(=O)NC3CCCC3)[C@]1([H])CCO2 | A: 7.611%; B: 2.286%
* O=c1cc(CN(CCO)C2CC2)nc2ccc(Cl)cn12 | A: 6.364%; B: -33.99% and 7.532%
* CCOc1cccc2c1OCC(C(=O)NS(=O)(=O)c1ccc(Cl)cc1)=C2 | A: -18.91%; B: -36.31%
* COc1ccc(NC(=O)c2nc3ccccc3n(C)c2=O)cc1OC | A: 9.869%; B: -4.875%
* CC(=O)c1ccc(-c2cc(C(F)(F)F)cc(N(C)C)n2)cc1 | A: 2.759% and -0.8471%; B: -4.886%
* Cn1cc(CN2CCC(CCC(=O)Nc3ccccc3Cl)CC2)cn1 | A: -13.63%; B: 23.8%
* CC(C)CCOc1ccc(C(C)NC(=O)Cn2cccnc2=O)cc1 (configuration not stated) | A: 43.4%; B: 51.01% and -1.017%
* c1cnn(CC2CCCN2c2ncnc3sccc23)c1 (configuration not stated) | A: -2.824%; B: -0.765%
* CCN(Cc1ccc2c(c1)OCCO2)C(=O)NCc1nncn1CC | A: -8.395%; B: -18.58%
* [H][C@@]12C[C@@H](OCc3cccnc3)CN1CCN(C(=O)c1cnc(C)cn1)C2 | A: 1.665%; B: -0.4082% and 10.71%
* CCN1CCC2(CCC1=O)CN(C1CCOCC1)CCN2C (configuration not stated) | A: -21.89%; B: -3.424%
* CCC(NC(=O)C(C)C)c1ccccc1C (configuration not stated) | A: -10.96%; B: -17.2%
* Cc1cccn2c(=O)cc(CN3CCCCC3Cn3cncn3)nc12 (configuration not stated) | A: -10.61%; B: -10.04%
* c1cnc(N2CCCC(c3n[nH]c4ncccc34)C2)nc1 (configuration not stated) | A: 23.45%; B: -11.23%
* O=C(NCc1csc(-c2cccs2)n1)C1NCCc2[nH]cnc21 (configuration not stated) | A: 3.798% and -1.284%; B: 12.71%
* COc1cc2cc3c(nc2cc1OC)OCCN(Cc1cccs1)C3 | A: -25.81%; B: 12.24%

Some entries from above, unchanged:

compound,A,B
[H][C@@]12C[C@@H](OC)C[C@]1([H])CN(C(=O)c1cc3cccc(F)c3[nH]1)C2,10.31%,25.15% and 5.953%
CCc1ccc(C2NCCc3cc4c(cc32)OCCO4)cc1 (configuration not stated),8.204%,-1.63%
[H][C@@]12CN(Cc3scnc3C)C[C@H](C(=O)NC3CCCC3)[C@]1([H])CCO2,7.611%,2.286%